Results on two molecules are retold here after article PMC11962113, “An unusual glycerol-3-phosphate dehydrogenase in Sulfolobus acidocaldarius elucidates the diversity of glycerol metabolism across Archaea” (Communications Biology, 2025).

Results are given in words; binding and its absence hold for the method and conditions named. In cells and extracts the contact can be indirect. These calls come from enrichment with a bait or labelling near it, and not all partners need be listed. Tags and fused reporters may be left off the sequences shown.

The target in assay [1] is T1, CoxG homologue Saci_2031, C-terminally HA-tagged (S. acidocaldarius DSM 639) (UniProt Q4J7A4).
T1 sequence: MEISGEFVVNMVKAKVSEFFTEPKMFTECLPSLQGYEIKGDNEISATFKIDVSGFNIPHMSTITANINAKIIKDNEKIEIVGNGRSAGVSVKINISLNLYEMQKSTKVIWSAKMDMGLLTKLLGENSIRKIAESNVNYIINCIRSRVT
As to the kind of experiment: affinity purification with mass spectrometry; co-IP of C-terminally HA-tagged CoxG from S. acidocaldarius MW00G lysate (25 mM TRIS-HCl pH 7, 150 mM KCl, 5% glycerol, 10 mM EDTA, 2% DDM) with anti-HA magnetic beads, 1 h at room temperature; on-bead digestion, LC-MS/MS, LFQ.

Assay [2] has as its target T2, CoxG homologue Saci_1119, C-terminally HA-tagged (S. acidocaldarius DSM 639) (UniProt Q4J9R0).
T2 sequence: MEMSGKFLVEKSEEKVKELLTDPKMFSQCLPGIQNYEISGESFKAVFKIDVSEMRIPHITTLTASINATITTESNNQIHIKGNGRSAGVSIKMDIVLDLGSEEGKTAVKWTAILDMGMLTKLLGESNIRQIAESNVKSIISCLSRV
The description is as above.

B1: glycerol-3-phosphate dehydrogenase Saci_2032 (endogenous) (enzyme, UniProt Q4J7A2 1-431)
chain: MEIKTSVLVIGGGANGLFTALDLALRGIDVTLVERRDIGSGTSGRFHGLLHSGARYAVTDPESAKECIQENNIISKIAPHAIRDTGGLFLGITKEDLEFLDKFLSSLKKLGIEHKIVDNNQVLQEEPYVNKDLKIAIWVPDKVVYGYDLLSSIAVTGSLNKARIMTYNEVTEFIRDGNSIKGVKVFDKITNQMNLIKSDIIINTSGPWAFKIITMAGLEEIPILPTAGIMAVFGKKVNNAVLNRLRPPSDGDIIVPYQDTSILGTTATIIEDPDNFTISDEDVKMLIKEGSQLVPELSKTRVIRTYASVRPLMRTSEDGRKASRDFTILDHEREDGVSGLISIIGGKFTTSRLVGEKVGDLVSEKLGVRAKSKTKETKLISPSEIDFEKYLEKIGISKIFLKSVMERRGSLDEERYKTVLYLLLSLIARGR
As to B1, the binding result in assay [1] was “binds”.

B2: glycerol-3-phosphate dehydrogenase Saci_1118 (endogenous) (enzyme, UniProt Q4J9Q8 1-428)
chain: MKQNSSVIVIGGGATGLFTALDLSLRGINVTLVERGDIASGTSGKFHGLLHSGARYAVNDPESAKECKQENEVLSKIAPEFVRDTGGVFVGITEDDVNYSQRFLSALNSLGITNKVMDVEELIRREPFINKKSKIAIWVPDKVVYGYDLLATVALTASLNGAKILTYNEVKRVLREGNSVRRVEVKDNISGETKILNGDIIVNTAGPWAFRVIEMAGLGEIPLLPTAGIMVVMKEKLNSMVINRLRPPSDGDIIVPYGDSSIIGTTATIIPDPDNFEISDEDINMLIEEGAYMIPRLKEVKPERAYASVRPLIKNAEDGRGATRDFMIIDHEKVDSLDGLISVIGGKFTTSRLAGEKVSDMVSEKLGIREKSKTATIKLMSELDEKLLEKKRVPKVLVKMIRERKGSLDEDRYSTAMYILLSLLARGE
Turning to B2, in assay [2], the binding entry is recorded as “binds”.
